# Data published in the supplement of paper PMC3334620.
# In all, about 33,000 sequences were measured (“E-score (-0.5 to 0.5)”: median about -0.0014, highest 2% from about 0.25 on). This is one part of the list.
# Molecular target: T1, Cad1 (UniProt P24813)
# T1 sequence: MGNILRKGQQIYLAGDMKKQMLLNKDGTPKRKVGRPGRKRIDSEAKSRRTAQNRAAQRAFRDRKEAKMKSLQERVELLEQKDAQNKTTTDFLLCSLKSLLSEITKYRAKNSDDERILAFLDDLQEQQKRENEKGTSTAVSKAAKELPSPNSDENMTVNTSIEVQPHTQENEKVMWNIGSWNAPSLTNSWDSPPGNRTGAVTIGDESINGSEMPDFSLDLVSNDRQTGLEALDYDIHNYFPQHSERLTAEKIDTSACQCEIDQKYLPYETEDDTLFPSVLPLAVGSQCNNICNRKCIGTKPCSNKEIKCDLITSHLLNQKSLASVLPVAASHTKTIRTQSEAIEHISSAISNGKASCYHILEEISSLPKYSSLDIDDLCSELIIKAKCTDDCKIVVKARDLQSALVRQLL
# Assay: PBM E-score (8-mer binding enrichment) (E-score (-0.5 to 0.5)); higher = stronger / more preferred TF binding
# Conditions: protein concentration: 100 nM; construct: GST-full length
# Method in brief: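 Full-length yeast transcription factors or their DNA-binding domains, GST-tagged and expressed with PURExpress, were applied at about 100-200 nM to universal all-10-mer Agilent arrays. These arrays had been made double-stranded by primer extension on fresh or once-stripped slides. Detection used fluorescent anti-GST, normalisation used masliner, and E-scores for ungapped eight-base words pooled with reverse complements came from the Universal PBM Analysis Suite.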
row,Sequence,PBM E-score
1,GGATATTA,0.163
2,AGATGCAT,0.0733
3,CAACTCAG,-0.0657
4,AACCGAGA,0.0525
5,AGTAATGC,0.055
6,CTCCCCAC,-0.104
7,CGAGGCTC,-0.138
8,CACGCGGG,0.0476
9,CTAGCGGA,-0.068
10,GTAAACCA,0.0154
11,ATTCGTAG,0.0619
12,ATTTTCAG,0.145
13,GCTAGCCC,-0.27
14,TCGACAAA,0.195
15,ATCCTCTA,-0.25
16,GGTAAGAA,-0.129
17,CGACCGGA,-0.215
18,GTGGAAGA,-0.13
19,CTAGGTGC,-0.221
20,ACAGAGAA,0.0176
21,CGGCCGAC,0.0674
22,ACTGGCGG,0.0311
23,GTAAGTCA,0.0222
24,TATTGAGA,0.186
25,CCTTTAAG,-0.104

row,Sequence,PBM E-score
1,ACCGGCGG,-0.209
2,ACGCCCGA,0.0212
3,CGAAAAAG,0.137
4,AAAATTTA,0.153
5,GCATCAAC,0.0863
6,CCTGTAAG,-0.0737
7,ACTTCCCA,0.0729
8,CCGGATAG,0.11
9,AATGCAGC,-0.0739
10,GGGGCATA,-0.0869
11,ACCAAAAG,0.0026
12,AGGCTGCG,0.00153
13,CCTGGGCC,-0.213
14,TAATTTCA,0.214
15,ACCGAGTG,-0.161
16,TCATAAGA,0.0067
17,CGCGGTAC,0.109
18,TACATCCA,0.0733
19,AGTATTCA,-0.0483
20,TCATCCCA,-0.186
21,GACTCTAA,-0.118
22,CCAGTAAA,-0.0575
23,AATTTGGA,0.0914
24,CAAAGTAA,-0.00082
25,ACCCTTCG,-0.135

row,Sequence,PBM E-score
1,ACTTCAAA,-0.0429
2,CCATCCGG,-0.22
3,CGATATAA,0.113
4,AGAATTGG,-0.0492
5,CCGGAAAA,0.215
6,ACCAATGC,0.116
7,GTAGGCAC,-0.143
8,CTACACAG,-0.0206
9,ACTTTCGG,-0.0839
10,AACGATTC,0.12
11,CAAGTCGG,0.0513
12,CCGTAACA,-0.00304
13,CGGCTGGC,-0.141
14,AGCATTTG,0.17
15,AAAGAAGG,-0.166
16,GCGAAAGC,-0.0648
17,AGTACAGG,0.141
18,ATAATGTC,0.157
19,AATCAAGT,0.0792
20,AACTATGT,0.09
21,ACTAGAAT,0.0557
22,CCGGGGAG,-0.0528
23,ACCAGGGA,-0.216
24,ACTTCCAA,-0.0238
25,ATGCACAT,0.0489

# Another view of some results above.
row	Sequence	PBM E-score
1	ACTTCAAA	-0.0429
10	AACGATTC	0.12
13	CGGCTGGC	-0.141
19	AATCAAGT	0.0792

# Taken from above:
# AACTATGT – PBM E-score: 0.09
# ATGCACAT – PBM E-score: 0.0489

# Remaining list, next part.

row,Sequence,PBM E-score
1,ATGTAAGA,0.227
2,ACACGACG,0.169
3,GTGACTCA,-0.0941
4,ACCACCTG,-0.0241
5,GCAGTCAC,0.0645
6,CAAACCGC,-0.0417
7,ACGCGCAA,0.206
8,AAGGGCTC,-0.164
9,CGATGCCA,-0.133
10,CACTCATA,0.0535
11,AATTGTTG,-0.0461
12,GATAAAGA,-0.0858
13,ACAGATTG,-0.0204
14,CGGGGTGC,-0.142
15,AAACTGCT,-0.0842
16,CCTGCTTA,0.0731
17,GAGATGTA,-0.00719
18,CTGCTGTA,-0.0378
19,GAAGAAGA,-0.0562
20,ATCCCCTC,-0.154
21,CGTACGAA,0.0708
22,CTTGTTAA,-0.0916
23,AACTGCCT,0.0149
24,AAACTGTC,-0.0464
25,CTCTTCAA,-0.221

row,Sequence,PBM E-score
1,ACGAACTA,0.143
2,TCGGTCCA,-0.0769
3,ATGGCGAC,-0.083
4,GTACTGTA,-0.187
5,ACTAATAG,0.325
6,AAACTGAC,-0.0422
7,GATTTTCC,0.0663
8,AAACACAG,0.188
9,CCCGTTAC,-0.0424
10,TCGTCAAA,0.106
11,AAGCTCCG,-0.059
12,AGCGAAGA,-0.118
13,CTACGGTA,-0.0445
14,CTTTAACA,0.0123
15,GTTAATTA,0.23
16,AGAGTGAT,0.0957
17,CGCGGCGA,0.166
18,AACGGACG,0.00202
19,ATGTTCTC,0.0835
20,CTACTTTC,-0.066
21,AGCCGGGA,-0.0305
22,ACGGTTCT,-0.0783
23,ATGTCAGC,0.315
24,CGGTCGAC,0.208
25,GTGTGCGA,0.0188

row,Sequence,PBM E-score
1,GTTGAGGA,-0.0239
2,AAAATAAA,0.128
3,ATACCCTC,-0.0628
4,CCGCATTA,0.172
5,AGTTATGA,0.133
6,ATCGAGTA,0.0173
7,TCCACTCA,-0.0328
8,CTTTGTGC,0.0539
9,CGGCGAAC,-0.00146
10,ATTCAAAA,0.187
11,TGATGCCA,0.0577
12,CGGTTGTA,-0.11
13,AAGGGTTG,0.035
14,ACTAGTCA,-0.144
15,CTCGCATA,-0.0526
16,ATACAGAT,0.182
17,AAATATCA,0.248
18,GTGCCAAA,0.103
19,CCCGATAC,0.0456
20,CCGGCCCA,-0.261
21,CTACGAAC,0.0364
22,AAGTTACC,0.0597
23,TCTGAACA,0.184
24,GAAACGTC,0.0141
25,CCAATAGG,-0.108

row,Sequence,PBM E-score
1,ATGGTCTA,-0.112
2,CTATTAGA,-0.057
3,GCCTTAGC,0.0664
4,GTGGTCTA,-0.143
5,ATTTTCGA,0.0859
6,GATGTCCC,-0.205
7,ACGATGCT,-0.135
8,AACTAGAA,-0.0141
9,GTCAGGAC,0.0682
10,CCTAACCC,-0.343
11,CTAGTAGA,-0.087
12,CACGGCCC,-0.113
13,CTTGGGAA,0.0607
14,AGCGCCCG,0.0761
15,ACACCGTC,0.0723
16,CAGTTGAC,0.0173
17,CCGCGCCA,-0.0216
18,GCGTTGAA,0.0746
19,AATAGAAC,0.158
20,TGAACTCA,0.0525
21,GCCCTGAA,0.0233
22,AATCGCTA,-0.0577

# Another view of some results above.
row | Sequence | PBM E-score
7 | ACGATGCT | -0.135
12 | CACGGCCC | -0.113
13 | CTTGGGAA | 0.0607
17 | CCGCGCCA | -0.0216
